Here are results for ten compounds from PubChem BioAssay AID248 (DTP/NCI, 2004).

The subject of this assay is L1210 leukemia ip in BDF1 mice, survival T/C. The experiment in a line: NCI In Vivo Anticancer Drug Screen. Data for tumor model L1210 Leukemia (intraperitoneal) in B6D2F1 (BDF1) mice. Particulars: T/C endpoint: mean survival time, higher T/C = longer survival.
The mark [1] stands for this setting: dose: 400.0 mg/kg/injection, schedule: Q04DX003 (ip), vehicle: saline.
[2] abbreviates: dose: 200.0 mg/kg/injection, schedule: Q04DX003 (ip), vehicle: saline.

The list does not hold the whole screen: it gathers tests that were run many times, whatever their T/C, doses with no T/C, and many T/C values between a quarter and a half above the control. Further doses and runs are listed elsewhere. T/C is the treated group as % of the vehicle group. Some entries give survivors of the animals treated and no T/C: the source files T/C as zero there, which appears to mark a toxic dose or a test without result, not a measured value. Some survivor counts are full or nearly so, which does not show that the dose was tolerated: survival well below the control is almost never listed, so the zero probably covers shortened survival too. Survivors were counted at the toxicity check, usually on the fifth day, unless a day is given; later deaths do not show. Schedules are NCI's codes, taken here to give the interval after Q, in days (D) or hours (H), and the number of doses after X. Some schedules carry Z or #; the key to these is not given. For survival time, this PubChem deposit counts one and a half times the control or more as active, and values a quarter to a half above the control carry no call in these data; other NCI protocols may use other cut-offs. Some entries were tested several times; the values are given in rising order. Some T/C values carry the count of animals alive at the toxicity check (mostly the fifth day); without a count, all were alive then.

With `[N-]=[N+]=CC(=O)NCC(=O)NN`, the T/C by setting is: (dose: 200.0 mg/kg/injection, schedule: Q01DX Z (ip), vehicle: other) 148 % of control; (dose: 200.0 mg/kg/injection, schedule: Q02DX Z (ip), vehicle: saline) 148 % of control; (dose: 250.0 mg/kg/injection, schedule: Q01DX005 (ip), vehicle: other) 141 % of control; (dose: 250.0 mg/kg/injection, schedule: Q01DX009 (ip), vehicle: other) 142 % of control; (dose: 250.0 mg/kg/injection, schedule: Q01DX009 (ip), vehicle: saline) 133 % of control; (dose: 250.0 mg/kg/injection, schedule: Q02DX009 (ip), vehicle: saline) 136 % of control. Moreover, the T/C reads like this: (dose: 300.0 mg/kg/injection, schedule: Q01DX Z (ip), vehicle: water) 126 % of control; (dose: 375.0 mg/kg/injection, schedule: Q01DX Z (ip), vehicle: saline) 127 % of control; (dose: 375.0 mg/kg/injection, schedule: Q01DX Z (ip), vehicle: water) 130 % of control; (dose: 400.0 mg/kg/injection, schedule: Q01DX009 (ip), vehicle: other) 127 % of control; (dose: 400.0 mg/kg/injection, schedule: Q01DX Z (ip), vehicle: water) 129 % of control; (dose: 400.0 mg/kg/injection, schedule: Q01DX Z (sc), vehicle: other) 125 % of control. Further, the T/C (dose: 400.0 mg/kg/injection, schedule: Q02DX005 (ip), vehicle: saline) was 129 % of control; the T/C (dose: 400.0 mg/kg/injection, schedule: Q02DX Z (ip), vehicle: other) was 137 % of control; the T/C (dose: 400.0 mg/kg/injection, schedule: Q03DX Z (ip), vehicle: other) was 128 % of control; the T/C (dose: 500.0 mg/kg/injection, schedule: Q01DX009 (ip), vehicle: other) was 133 % of control; the T/C (dose: 500.0 mg/kg/injection, schedule: Q01DX017 (ip), vehicle: saline) was 130 % of control; the T/C (dose: 500.0 mg/kg/injection, schedule: Q01DX Z (ip), vehicle: saline) is 136 % of control. Besides, the T/C runs as follows: (dose: 500.0 mg/kg/injection, schedule: Q01DX Z (ip), vehicle: water) 142 % of control; (dose: 500.0 mg/kg/injection, schedule: Q02DX009 (ip), vehicle: saline) 139 % of control; (dose: 500.0 mg/kg/injection, schedule: Q04DX003 (ip), vehicle: other) 142 % of control; (dose: 500.0 mg/kg/injection, schedule: Q04DX003 (ip), vehicle: saline) 132 % of control; (dose: 500.0 mg/kg/injection, schedule: Q08DX002 (ip), vehicle: other) 135 % of control; (dose: 500.0 mg/kg/injection, schedule: Q08DX002 (ip), vehicle: saline) 131 % of control. In addition, the T/C (dose: 600.0 mg/kg/injection, schedule: Q01DX005 (ip), vehicle: other) was 136 % of control; the T/C (dose: 600.0 mg/kg/injection, schedule: Q01DX009 (ip), vehicle: other) was 136 % of control [9 of 10 alive]; the T/C (dose: 600.0 mg/kg/injection, schedule: Q02DX005 (ip), vehicle: saline) was 144 % of control; the T/C (dose: 750.0 mg/kg/injection, schedule: Q08DX002 (ip), vehicle: other) is 131 % of control; the T/C (dose: 800.0 mg/kg/injection, schedule: Q01DX Z (ip), vehicle: other) was 128 % of control; the T/C (dose: 800.0 mg/kg/injection, schedule: Q## X024 (ip), vehicle: water) is 131 % of control. Also, the T/C (dose: 1000.0 mg/kg/injection, schedule: Q01DX001 (ip), vehicle: other) is 135 % of control; the T/C (dose: 1000.0 mg/kg/injection, schedule: Q08DX002 (ip), vehicle: other) was 136 % of control; the T/C (dose: 1100.0 mg/kg/injection, schedule: Q## X024 (ip), vehicle: water) was 134 % of control; the T/C (dose: 1200.0 mg/kg/injection, schedule: Q01DX Z (ip), vehicle: other) is 135 and 140 % of control; the T/C (dose: 1500.0 mg/kg/injection, schedule: Q04DX003 (ip), vehicle: other) was 132 % of control; the T/C (dose: 1600.0 mg/kg/injection, schedule: Q01DX Z (ip), vehicle: other) was 135 % of control. Where the note is “dose: 2000.0 mg/kg/injection, schedule: Q01DX001 (ip), vehicle: saline”, the T/C was 146 % of control [9 of 10 alive]. The survivor count runs as follows: (dose: 700.0 mg/kg/injection, schedule: Q01DX009 (sc), vehicle: other) 3 of 10; (dose: 750.0 mg/kg/injection, schedule: Q01DX009 (ip), vehicle: other) 5 of 6; (dose: 750.0 mg/kg/injection, schedule: Q01DX Z (ip), vehicle: other) 6 of 6; (dose: 750.0 mg/kg/injection, schedule: Q01DX Z (ip), vehicle: saline) 5 of 6; (dose: 750.0 mg/kg/injection, schedule: Q01DX Z (ip), vehicle: water) 6 of 6; (dose: 1000.0 mg/kg/injection, schedule: Q01DX017 (ip), vehicle: saline) 8 of 10. The survivor count (dose: 1600.0 mg/kg/injection, schedule: Q01DX Z (oral), vehicle: other) is recorded as 3 of 6; the survivor count (dose: 1600.0 mg/kg/injection, schedule: Q01DX Z (oral), vehicle: saline) is 3 of 6; the survivor count (dose: 2000.0 mg/kg/injection, schedule: Q02DX009 (ip), vehicle: saline) is listed as 3 of 10; the survivor count (dose: 2500.0 mg/kg/injection, schedule: Q01DX001 (ip), vehicle: saline) is listed as 4 of 10; the survivor count (dose: 2500.0 mg/kg/injection, schedule: Q08DX002 (ip), vehicle: saline) is recorded as 3 of 10.

Turning to `O=C(CBr)c1ccc(Br)cc1`, the survivor count (dose: 50.0 mg/kg/injection, schedule: Q04DX002 (ip), vehicle: Klucel (hydroxypropylcellulose) (HPC)) is listed as 3 of 3.

On to `O=C(CCCCl)CC(O)(C(F)(F)F)C(F)(F)F`, for which the survivor count (dose: 400.0 mg/kg/injection, schedule: Q01DX009 (ip), vehicle: saline with Tween-80) is reported as 3 of 6.

With `COc1ccc(NC(=S)Nc2ccc(-c3ccc(NC(=S)Nc4ccc(OC)cc4)cc3)cc2)cc1`, under “dose: 400.0 mg/kg/injection, schedule: Q04DX002 (ip), vehicle: Klucel (hydroxypropylcellulose) (HPC)”, the survivor count is listed as 3 of 3.

Take `O=C(Nc1ccc(F)cc1)Nc1ccc(CCO)cc1`: the survivor count is recorded as 6 of 6 (dose: 400.0 mg/kg/injection, schedule: Q01DX001 (ip), vehicle: carboxymethylcellulose (CMC)) and 3 of 3 (dose: 400.0 mg/kg/injection, schedule: Q01DX009 (ip), vehicle: carboxymethylcellulose (CMC)).

In the case of `COC(=O)/C=C\C(=O)O`, under setting [1], the survivor count is given as 2 of 6.

Turning to `CC1CC[N-]CC1.CC1CC[N-]CC1.CC1CC[N-]CC1.CC1CC[N-]CC1.[Pt+4]`, the survivor count by setting is: (dose: 1.56 mg/kg/injection, schedule: Q04DX003 (ip), vehicle: saline) 0 of 6; (dose: 6.25 mg/kg/injection, schedule: Q04DX003 (ip), vehicle: saline) 0 of 6; (dose: 100.0 mg/kg/injection, schedule: Q04DX003 (ip), vehicle: saline) 1 of 6; under setting [2], 0 of 6; under setting [1], 0 of 6. Besides, the T/C (dose: 3.12 mg/kg/injection, schedule: Q01DX009 (ip), vehicle: saline) is 126 % of control [5 of 6 alive].

`CCOC1OCN(C(C)(C)C)CC1(C)C` (centres undefined): the survivor count (dose: 400.0 mg/kg/injection, schedule: Q01DX009 (ip), vehicle: saline) is 1 of 6.

As for `CC(C)N(CCCOC(=O)c1ccc(N)cc1)C(C)C`, the survivor count is, setting by setting: under setting [2], 4 of 6; under setting [1], 1 of 6.

On to `COc1cc(N2CCOCC2)ccc1N`, for which, where the note is “dose: 100.0 mg/kg/injection, schedule: Q01DX009 (ip), vehicle: saline”, the survivor count is reported as 5 of 6.
